Experimental data as given in patent US6949255B2, “Inhibitory chemical formulation with preservative system” (priority 2000, dated 2005).
Some results were stated once for a whole list of compounds, not compound by compound.

Legend:
HIV = type: cell-based
VSV = type: cell-based, vesicular stomatitis virus

Molecule | inhibition of multiplication of HIV (HIV) | concentrations at which inhibitory activity was absent (VSV) [%]
Nonoxynol-9 [Nonoxynol-9®] | greater than 1,000 fold | –
COC(=O)c1ccc(O)cc1 [Methylparaben] | – | < 0.2
